Substitutions are numbered along the chain they refer to. No constants are given. Whether binding was seen depends on the method and setting. Binding seen in cells or lysates may run through a third protein. Some results given as binding are weak or reduced against the parent protein; the word gives no strength.

Amino acid sequences for entries named in this document (tags omitted). A change or cut given only in a name is not applied to a line headed by its entry.
UniProt P02929, whole entry, looked up, stated change not applied: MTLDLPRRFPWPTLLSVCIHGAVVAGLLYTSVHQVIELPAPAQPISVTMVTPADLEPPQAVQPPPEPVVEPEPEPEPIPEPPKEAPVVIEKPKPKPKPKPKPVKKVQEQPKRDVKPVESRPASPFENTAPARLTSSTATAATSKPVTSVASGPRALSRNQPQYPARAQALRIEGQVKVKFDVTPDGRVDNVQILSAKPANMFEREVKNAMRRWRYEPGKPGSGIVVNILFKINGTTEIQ

This note sets out measurements from publication doi:10.1101/2021.12.08.471779.

Common to all, as to test: cross-linking
Assay [1] addresses T1, FepA S46C (Escherichia coli K-12) (UniProt P05825).
T1 sequence: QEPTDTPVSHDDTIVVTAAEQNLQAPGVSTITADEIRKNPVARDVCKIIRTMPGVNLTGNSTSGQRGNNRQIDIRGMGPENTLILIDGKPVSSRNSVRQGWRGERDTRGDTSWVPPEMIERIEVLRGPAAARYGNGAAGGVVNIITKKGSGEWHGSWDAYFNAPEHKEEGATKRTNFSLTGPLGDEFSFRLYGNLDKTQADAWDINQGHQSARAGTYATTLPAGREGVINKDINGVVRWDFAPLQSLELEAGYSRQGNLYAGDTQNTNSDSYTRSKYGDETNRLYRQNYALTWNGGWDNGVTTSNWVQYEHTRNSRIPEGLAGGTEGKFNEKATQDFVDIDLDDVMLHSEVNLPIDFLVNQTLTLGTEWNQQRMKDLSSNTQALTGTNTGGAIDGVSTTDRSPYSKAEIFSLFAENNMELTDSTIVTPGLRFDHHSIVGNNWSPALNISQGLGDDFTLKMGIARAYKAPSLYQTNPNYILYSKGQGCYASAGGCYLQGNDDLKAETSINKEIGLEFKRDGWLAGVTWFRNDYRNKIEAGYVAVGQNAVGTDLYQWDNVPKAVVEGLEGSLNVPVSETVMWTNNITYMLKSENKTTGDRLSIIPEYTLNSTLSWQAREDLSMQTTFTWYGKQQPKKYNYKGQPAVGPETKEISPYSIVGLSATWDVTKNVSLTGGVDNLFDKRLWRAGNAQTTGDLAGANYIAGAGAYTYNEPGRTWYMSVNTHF

Assay [2] has as its target T2, FepA A131C (Escherichia coli K-12) (UniProt P05825).
T2 sequence: T1 sequence with C46S, A131C

The target of assay [3] is T3, FepA D298C (Escherichia coli K-12) (UniProt P05825).
T3 sequence: T1 sequence with C46S, D298C

In the case of “TonB C18G A209C (from UniProt P02929 1-239)”, the binding entry in assay [1], in assay [2] and in assay [3] was “no binding” in each case.

Turning to “TonB C18G H20A Q160C (from UniProt P02929 1-239)”, the binding entry in assay [1] is “no binding”.

With “TonB C18G H20A R204C (from UniProt P02929 1-239)”, the binding result in assay [3] is “binds”.

“TonB C18G M201C (from UniProt P02929 1-239)”: the binding result in assay [1] and in assay [2] was “no binding” in each case.

Turning to “TonB C18G N208C (from UniProt P02929 1-239)”, the figures for the binding entry in assay [1], in assay [2] and in assay [3] were “no binding”, “no binding” and “binds weakly”, respectively.

On to “TonB C18G Q160C (from UniProt P02929 1-239)”, for which the binding entry in assay [1] is “binds”; in assay [2], “no binding”; in assay [3] it was “no binding”.

As for “TonB C18G R204C (from UniProt P02929 1-239)”, the binding entry was “no binding” in assay [1], “no binding” in assay [2] and “binds” in assay [3].

Consider “TonB C18G R212C (from UniProt P02929 1-239)”, for which the binding result in assay [1] and in assay [2] was “no binding” each time.

“TonB C18G R214C (from UniProt P02929 1-239)”: the binding entry in assay [1] and in assay [2] was “no binding” each time.

On to “TonB C18G V206C (from UniProt P02929 1-239)”, for which the binding entry in assay [1], in assay [2] and in assay [3] was “no binding” in each case.
